Earlier results in US20230256049A1, “MATERIALS AND METHODS FOR THE PREVENTION AND TREATMENT OF VIRAL RESPIRATORY DISEASES” (priority 2020, published 2023).
At least one compound was matched to its structure with a doubt left.

System: SARS-CoV-2
Settings: remdesivir: double-blind, randomized, placebo-controlled trial in hospitalized adults; cited from earlier work

Compound: CCC(CC)COC(=O)[C@H](C)N[P@](=O)(OC[C@H]1O[C@@](C#N)(c2ccc3c(N)ncnn23)[C@H](O)[C@@H]1O)Oc1ccccc1 [remdesivir]
- treatment outcome in SARS-CoV-2 / COVID-19 patients: only a small beneficial impact
